Reference: PMC9816929
These are yes or no findings as the source states them, for the method shown. Binding seen in cells or lysates may run through a third protein. Some results given as binding are weak or reduced against the parent protein; the word gives no strength.

Sequences of proteins named here, by UniProt entry; tags and fusion partners are left off.
UniProt P35222: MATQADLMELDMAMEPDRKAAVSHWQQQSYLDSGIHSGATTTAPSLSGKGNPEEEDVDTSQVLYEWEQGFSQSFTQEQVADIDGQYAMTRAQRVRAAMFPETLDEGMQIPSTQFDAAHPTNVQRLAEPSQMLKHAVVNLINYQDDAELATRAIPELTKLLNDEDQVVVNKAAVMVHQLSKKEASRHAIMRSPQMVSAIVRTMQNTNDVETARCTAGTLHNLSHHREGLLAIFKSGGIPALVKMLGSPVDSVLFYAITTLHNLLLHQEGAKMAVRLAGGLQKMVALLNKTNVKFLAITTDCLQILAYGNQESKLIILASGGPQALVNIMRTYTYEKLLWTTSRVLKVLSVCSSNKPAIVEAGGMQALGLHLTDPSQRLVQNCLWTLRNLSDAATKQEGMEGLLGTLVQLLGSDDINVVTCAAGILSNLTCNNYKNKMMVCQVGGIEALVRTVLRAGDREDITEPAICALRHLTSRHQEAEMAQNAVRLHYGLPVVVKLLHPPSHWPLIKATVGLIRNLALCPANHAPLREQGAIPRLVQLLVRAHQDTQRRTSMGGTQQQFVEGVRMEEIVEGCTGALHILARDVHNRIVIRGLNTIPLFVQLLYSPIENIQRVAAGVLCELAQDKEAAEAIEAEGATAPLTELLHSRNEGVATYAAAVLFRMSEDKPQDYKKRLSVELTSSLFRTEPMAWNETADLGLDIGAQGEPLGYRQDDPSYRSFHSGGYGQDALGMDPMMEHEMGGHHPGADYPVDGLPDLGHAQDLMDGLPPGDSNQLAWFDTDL
UniProt Q9H1B7: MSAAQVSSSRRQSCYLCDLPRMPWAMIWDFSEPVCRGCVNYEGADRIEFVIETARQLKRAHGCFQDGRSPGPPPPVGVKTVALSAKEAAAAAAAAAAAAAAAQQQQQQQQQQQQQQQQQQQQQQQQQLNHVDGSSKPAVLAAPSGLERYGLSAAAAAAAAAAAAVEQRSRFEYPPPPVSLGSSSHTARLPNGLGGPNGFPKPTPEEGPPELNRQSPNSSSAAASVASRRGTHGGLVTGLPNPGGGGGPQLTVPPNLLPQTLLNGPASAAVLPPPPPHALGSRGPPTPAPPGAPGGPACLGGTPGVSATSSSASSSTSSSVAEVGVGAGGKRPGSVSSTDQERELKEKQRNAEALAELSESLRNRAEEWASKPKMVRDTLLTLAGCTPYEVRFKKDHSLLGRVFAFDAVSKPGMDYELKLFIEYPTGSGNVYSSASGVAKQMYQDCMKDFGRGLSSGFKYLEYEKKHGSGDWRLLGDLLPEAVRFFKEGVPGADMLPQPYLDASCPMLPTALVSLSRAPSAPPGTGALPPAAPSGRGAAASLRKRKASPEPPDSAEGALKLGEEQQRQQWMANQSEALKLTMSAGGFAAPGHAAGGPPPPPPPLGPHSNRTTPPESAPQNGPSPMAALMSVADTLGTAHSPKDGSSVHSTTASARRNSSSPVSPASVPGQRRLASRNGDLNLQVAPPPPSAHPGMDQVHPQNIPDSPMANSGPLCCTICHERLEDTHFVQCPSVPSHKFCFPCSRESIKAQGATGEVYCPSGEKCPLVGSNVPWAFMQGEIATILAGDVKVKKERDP

Target: β-catenin (human (in human chondrocytes)) (UniProt P35222)
Assay: co-IP; co-immunoprecipitation in human chondrocytes (HCs); which protein was precipitated is not told

binding: binds
Substance: Interferon Regulatory Factor 2 Binding Protein Like (IRF2BPL) (from UniProt Q9H1B7 1-796)
